Hit rate of the full screen: of about 360,000 compounds, about 7,500 (2.1%) were called active. This list was built around the results that the source calls inconclusive (neither active nor inactive); the mix of calls is not that of the screen. Calls come from the whole dose curve; as a rule, active = well fitted inhibition curve with a large enough effect; inconclusive = small, poorly fitted or top-dose-only effect, or effect the other way; inactive = flat fitted curve, though single readings scatter. Potencies beside an inconclusive call are fits to weak or partial responses and may not hold up.
Experiment: Nrf2 qHTS screen for inhibitors; note: nearly all actives have a fitted effect of over 60% in size
Conditions: A549 ARE-Fluc reporter, luciferase luminescence, 18-24 h; activity change, negative = inhibition: at 46 µM (top of the series)
Method in brief: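 Quantitative HTS in A549 cells stably bearing an antioxidant response element-firefly luciferase construct. Inhibition of Nrf2-driven transcription was scored by luminescence after 18-24 h of compound exposure at 37 °C.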
% is set by controls: 0 for no effect and ±100 for the full control effect; potency is the fitted concentration of half-maximal effect.

SMILES | Potency | activity change, negative = inhibition
O=C(Nc1ccccc1C(=O)Nc1ccccc1C(=O)O)c1ccccc1 | inconclusive: 29.1 µM [activator, single point] | 
Cc1ccccc1NC(=O)CSc1nc2c(c(=O)n(C)c(=O)n2C)n1C | inconclusive: 7.31 µM [falling, partial curve, poor fit] | 
CC(C)N(Cc1ccccc1)C(=O)CN1C(=O)COc2ccc(S(=O)(=O)N3CCCCCC3)cc21 | inconclusive: 29.1 µM [falling, single point] | 
N#Cc1c2ccccc2nc2ccccc12 | inconclusive: 5.17 µM [falling, partial curve, poor fit] | 
Cc1ccc(/C=C/C(=O)NCc2cccs2)c(C)c1 | inconclusive: 2.59 µM [activator, full curve] | 
O=C(CSc1ncnc2[nH]ncc12)Nc1cccc(Oc2ccccc2)c1 | inconclusive: 6.51 µM [falling, partial curve, poor fit] | 
CS(=O)(=O)N1CCN(C2C3CC4CC(C3)CC2C4)CC1 (centres undefined) |  | inactive: -0.398%
Nc1nc(NCc2ccc(Cl)cc2)c2[nH]cnc2n1 |  | inactive: 4.87%
CCOC(=O)[C@H]1[C@H]2COc3ccc(C)cc3[C@@H]2N2C(=O)c3ccc(Cl)cc3NC(=O)[C@@]12C | inconclusive: 18.4 µM [falling, single point] | 
CS(=O)(=O)Nc1cccc(-c2cc(F)c(S(=O)(=O)N3CCN(S(=O)(=O)c4ccc5c(c4)OCCO5)CC3)cc2F)c1 |  | inactive: -21.8%
CCN1C(=S)SC(=O)C1=C1C=C(C)N(CCO)C(C)=C1 | inconclusive: 0.461 µM [activator, full curve, poor fit] | 
COc1ccccc1/C=C/C(=O)NCC(=O)N/N=C(/C)c1ccco1 | inconclusive: 29.1 µM [falling, single point] | 
Cc1ccc(-n2c(C)nc3oc4ccccc4c(=O)c3c2=O)cc1 | inconclusive: 1.84 µM [activator, full curve, poor fit] | 
CCN(CC)CCNC(=O)c1nn(-c2ccc(Cl)cc2)c2c1CCc1cc(OC)ccc1-2 |  | inactive: 13.2%
N=C(N)SCCN | inconclusive: 29.1 µM [activator, partial curve, poor fit] | 
O=C(CN(C(=O)c1csnn1)c1ccc(Cl)cc1)NCc1ccc2c(c1)OCO2 | inconclusive: 20.6 µM [activator, single point] | 
COc1ccc(Nc2nc(-c3ccccc3)nc3ccccc23)cc1 |  | inactive: 12.6%
Cc1cccc(C(=O)Nc2cccc3cccnc23)c1 | inconclusive: 20.6 µM [activator, partial curve, poor fit] | 
N#Cc1nc(-c2ccc(OCc3ccc(Cl)cc3)cc2)oc1N1CCC(C(N)=O)CC1 | inactive | 

A portion from the list above, for reference:
SMILES | Potency | activity change, negative = inhibition
CS(=O)(=O)Nc1cccc(-c2cc(F)c(S(=O)(=O)N3CCN(S(=O)(=O)c4ccc5c(c4)OCCO5)CC3)cc2F)c1 |  | inactive: -21.8%
CCN1C(=S)SC(=O)C1=C1C=C(C)N(CCO)C(C)=C1 | inconclusive: 0.461 µM [activator, full curve, poor fit] | 
